No constants are given. Whether binding was seen depends on the method and setting. In cells and extracts the contact can be indirect. Binding calls can cover weak binding; strength is not graded here.
Target: Voltage-dependent anion channel 1 (mouse (endogenous in CMECs)) (UniProt Q60932)
Assay: co-IP; CMEC proteins cross-linked in 1% paraformaldehyde, cells lysed by sonication in PBS with 1% Triton X-100, incubated with the respective antibodies and protein A/G agarose; immunoprecipitates probed with HK2 antibody

Amino acid sequences for entries named in this document (tags omitted). A change or cut given only in a name is not applied to a line headed by its entry.
UniProt Q60932: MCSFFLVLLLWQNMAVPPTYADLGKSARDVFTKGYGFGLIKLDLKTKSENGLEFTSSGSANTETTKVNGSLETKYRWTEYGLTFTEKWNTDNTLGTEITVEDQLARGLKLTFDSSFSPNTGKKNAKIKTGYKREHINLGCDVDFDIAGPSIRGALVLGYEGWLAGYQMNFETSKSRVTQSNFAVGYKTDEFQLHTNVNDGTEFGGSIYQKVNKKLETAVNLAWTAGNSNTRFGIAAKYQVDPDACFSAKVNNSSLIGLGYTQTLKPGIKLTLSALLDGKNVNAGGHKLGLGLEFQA

B1: Hexokinase 2 (enzyme, UniProt O08528 1-917)
chain: MIASHMIACLFTELNQNQVQKVDQYLYHMRLSDETLLEISRRFRKEMEKGLGATTHPTAAVKMLPTFVRSTPDGTEHGEFLALDLGGTNFRVLRVRVTDNGLQRVEMENQIYAIPEDIMRGSGTQLFDHIAECLANFMDKLQIKEKKLPLGFTFSFPCHQTKLDESFLVSWTKGFKSSGVEGRDVVDLIRKAIQRRGDFDIDIVAVVNDTVGTMMTCGYDDQNCEIGLIVGTGSNACYMEEMRHIDMVEGDEGRMCINMEWGAFGDDGTLNDIRTEFDREIDMGSLNPGKQLFEKMISGMYMGELVRLILVKMAKAELLFQGKLSPELLTTGSFETKDVSDIEDDKDGIQKAYQILVRLGLSPLQEDCVATHRICQIVSTRSASLCAATLAAVLWRIKENKGEERLRSTIGVDGSVYKKHPHFAKRLHKAVRRLVPDCDVRFLRSEDGSGKGAAMVTAVAYRLADQHRARQKTLESLKLSHEQLLEVKRRMKVEMEQGLSKETHEAAPVKMLPTYVCATPDGTEKGDFLALDLGGTNFRVLLVRVRNGKRRGVEMHNKIYSIPQEVMHGTGEELFDHIVQCIADFLEYMGMKGVSLPLGFTFSFPCQQNSLDQSILLKWTKGFKASGCEGEDVVTLLKEAIRRREEFDLDVVAVVNDTVGTMMTCGYEDPHCEVGLIVGTGSNACYMEEMRNVELVDGEEGRMCVNMEWGAFGDNGCLDDLRTVFDVAVDELSLNPGKQRFEKMISGMYLGEIVRNILIDFTKRGLLFRGRISERLKTRGIFETKFLSQIESDCLALLQVRAILRHLGLESTCDDSIIVKEVCTVVARRAAQLCGAGMAAVVDKIRENRGLDNLKVTVGVDGTLYKLHPHFAKVMHETVRDLAPKCDVSFLESEDGSGKGAALITAVACRIREAGQR
binding: binds

Source: publication PMC5524036
